Results published in the supplement of paper PMC12282887.
These are raw signals, not scaled to a control.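 The top concentration was set near the MIC for antimicrobials, at 500 µM for most other compounds, and up to 1 mM for known inducer-like compounds. Deletion strains started from a tenfold smaller inoculum, and wells growing below 10% of the overall median were treated as non-growing.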

Test system: Escherichia coli BW25113
Test: growth (OD600 area under curve, 8 h) (OD600 x h); higher = more growth
Procedure: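 E. coli BW25113 reporter strains (wild type, ΔmarA, ΔsoxS, Δrob, each carrying one of 8 lux reporter plasmids) were grown in 40 µl LB in 384-well plates at 37°C, 800 rpm, with each compound at 4 two-fold concentrations, in biological duplicates. Growth is the baseline-corrected OD600 area under the curve over 8 h (0-8 h WT, 1-9 h deletion strains).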

CC(=O)N[C@H]1[C@@H](O[C@@H]2O[C@H](CC(O)[C@H]3O[C@@H](n4ccc(=O)[nH]c4=O)[C@H](O)[C@@H]3O)[C@H](O)[C@H](O)[C@H]2NC(=O)/C=C/CC(C)C)O[C@H](CO)[C@@H](N)[C@@H]1O (stereo partly drawn) [Tunicamycin]
growth
Details | reporter plasmid: EVC | reporter plasmid: acrABp | reporter plasmid: marRABp | reporter plasmid: micFp | reporter plasmid: ompFp | reporter plasmid: robp | reporter plasmid: soxSp | reporter plasmid: tolCp
2.6 µg/ml, genetic background: wild type | 3.0493 | 2.85 | 3.14 | 2.64 | 3.03 | 3.18 | 2.7 | 2.6
2.6 µg/ml, genetic background: ΔmarA | 3.37 | 4.28 | 3.85 | 3.4 | 3.76 | 4.18 | 2.83 | 3.03
2.6 µg/ml, genetic background: Δrob | 2.92 | 2.82 | 3.14 | 2.72 | 2.87 | 2.79 | 2.63 | 2.47
2.6 µg/ml, genetic background: ΔsoxS | 3.42 | 3.32 | 3.41 | 2.79 | 3.2 | 3.38 | 2.98 | 2.95
5.3 µg/ml, genetic background: wild type | 3.04 | 2.98 | 3.15 | 2.72 | 3.139 | 3.14 | 2.654 | 2.62
5.3 µg/ml, genetic background: ΔmarA | 2.92 | 4.23 | 3.727 | 3.22 | 3.26 | 4.06 | 2.85 | 2.89
5.3 µg/ml, genetic background: Δrob | 2.92 | 2.98 | 3.2 | 2.9 | 2.69 | 2.73 | 2.55 | 2.57
5.3 µg/ml, genetic background: ΔsoxS | 3.5 | 3.3 | 3.43 | 3.08 | 3.26 | 3.34 | 3.1 | 3.23
10.6 µg/ml, genetic background: wild type | 3.22 | 2.8 | 3.17 | 2.91 | 3.149 | 3.28 | 2.95 | 2.93
10.6 µg/ml, genetic background: ΔmarA | 2.9366 | 3.71 | 3.45 | 3.38 | 3.47 | 3.95 | 2.74 | 2.9
10.6 µg/ml, genetic background: Δrob | 3.15 | 3.026 | 2.98 | 2.93 | 2.81 | 2.66 | 2.66 | 2.89
10.6 µg/ml, genetic background: ΔsoxS | 3.45 | 3.31 | 3.49 | 3.0122 | 3.18 | 3.52 | 3.29 | 3.3
21.1 µg/ml, genetic background: wild type | 3.35 | 2.34 | 2.59 | 2.768 | 2.4 | 2.81 | 2.82 | 3.09
21.1 µg/ml, genetic background: ΔmarA | 3.27 | 3.18 | 2.85 | 3.35 | 3.02 | 3.62 | 2.93 | 2.84
21.1 µg/ml, genetic background: Δrob | 3.36 | 2.19 | 2.72 | 3 | 1.84 | 2.18 | 2.82 | 3.18
21.1 µg/ml, genetic background: ΔsoxS | 3.46 | 2.76 | 2.67 | 2.88 | 2.57 | 2.67 | 3.13 | 3.52
